No constants are given. Whether binding was seen depends on the method and setting. For some of these results: Binding can be weak; no strength is given. Tags and fused reporters may be left off the sequences shown.
Key:
[1] = target: T1, GFP:Laci-Repo-Man^WT (human) (UniProt Q69YH5); assay: LacI-LacO tethering, recruitment seen by fluorescence microscopy; GFP:Laci fusion tethered to a LacO array at a single locus in DT40 cells, endogenous Importin β stained with an antibody; prometaphase/metaphase cells
T1 sequence: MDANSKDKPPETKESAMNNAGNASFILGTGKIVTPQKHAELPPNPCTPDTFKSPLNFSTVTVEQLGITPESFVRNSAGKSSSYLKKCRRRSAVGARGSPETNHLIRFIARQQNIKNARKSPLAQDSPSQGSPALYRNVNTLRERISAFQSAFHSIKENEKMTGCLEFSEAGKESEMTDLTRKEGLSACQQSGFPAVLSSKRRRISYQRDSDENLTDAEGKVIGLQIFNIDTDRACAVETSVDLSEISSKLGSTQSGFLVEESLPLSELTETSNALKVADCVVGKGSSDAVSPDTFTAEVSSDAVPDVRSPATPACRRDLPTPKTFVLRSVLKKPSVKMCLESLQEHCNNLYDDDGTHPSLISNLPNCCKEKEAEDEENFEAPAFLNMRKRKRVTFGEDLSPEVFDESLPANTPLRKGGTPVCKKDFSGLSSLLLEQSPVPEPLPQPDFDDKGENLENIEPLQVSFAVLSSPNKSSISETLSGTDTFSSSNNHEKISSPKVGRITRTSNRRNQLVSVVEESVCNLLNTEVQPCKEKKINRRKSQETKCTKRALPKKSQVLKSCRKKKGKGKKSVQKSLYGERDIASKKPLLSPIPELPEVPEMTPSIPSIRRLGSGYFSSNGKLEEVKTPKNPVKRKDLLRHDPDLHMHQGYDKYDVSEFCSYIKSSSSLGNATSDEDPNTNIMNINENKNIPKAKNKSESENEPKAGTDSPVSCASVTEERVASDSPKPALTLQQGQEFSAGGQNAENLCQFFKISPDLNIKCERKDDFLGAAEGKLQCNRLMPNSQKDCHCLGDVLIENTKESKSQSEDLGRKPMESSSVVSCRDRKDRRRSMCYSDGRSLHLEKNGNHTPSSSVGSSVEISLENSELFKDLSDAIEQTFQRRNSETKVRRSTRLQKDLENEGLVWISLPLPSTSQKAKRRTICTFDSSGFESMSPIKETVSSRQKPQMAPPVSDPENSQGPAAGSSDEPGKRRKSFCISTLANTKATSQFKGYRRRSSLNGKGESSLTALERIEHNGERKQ

[2] = target: T2, GFP:Laci-Repo-Man^1–135 (human) (UniProt Q69YH5); assay: as above
T2 sequence: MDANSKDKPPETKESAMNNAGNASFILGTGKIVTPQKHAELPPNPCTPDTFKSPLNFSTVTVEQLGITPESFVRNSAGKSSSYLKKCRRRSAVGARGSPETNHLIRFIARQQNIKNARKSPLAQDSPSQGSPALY

[3] = target: T1, GFP:Laci-Repo-Man^WT (human); assay: LacI-LacO tethering, recruitment seen by fluorescence microscopy; GFP:Laci fusion tethered to a LacO array at a single locus in DT40 cells, endogenous Importin β stained with an antibody; anaphase/telophase cells
[4] = target: T2, GFP:Laci-Repo-Man^1–135 (human); assay: as above

Importin β (endogenous, DT40) (chicken (endogenous in DT40))
binding [1]: no binding (only in prometaphase/metaphase cells) | binding [2]: no binding (only in prometaphase/metaphase cells) | binding [3]: binds | binding [4]: binds
